# Experimental data from paper doi:10.1101/2021.05.11.443650.
# Amino acid sequences for entries named in this document (tags omitted). A change or cut given only in a name is not applied to a line headed by its entry.
# UniProt P63330: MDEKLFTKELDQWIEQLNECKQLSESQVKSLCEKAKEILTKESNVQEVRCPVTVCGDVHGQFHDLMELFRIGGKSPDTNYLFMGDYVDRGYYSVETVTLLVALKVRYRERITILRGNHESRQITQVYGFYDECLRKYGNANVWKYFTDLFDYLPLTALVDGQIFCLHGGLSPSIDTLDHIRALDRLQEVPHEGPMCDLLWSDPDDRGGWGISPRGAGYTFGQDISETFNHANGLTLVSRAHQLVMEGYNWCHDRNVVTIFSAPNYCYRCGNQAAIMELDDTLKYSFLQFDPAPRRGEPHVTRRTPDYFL
# Results are given in words; binding and its absence hold for the method and conditions named. In cells and extracts the contact can be indirect. A result given as binding can be weak or reduced; the word gives no strength.
# Molecular target: T1, phospholamban (mouse (endogenous in mouse heart)) (UniProt P61014)
# T1 sequence: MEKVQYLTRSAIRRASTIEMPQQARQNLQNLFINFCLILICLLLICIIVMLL
# Assay: co-IP
row,Substance,binding
1,protein phosphatase 1 (mouse (endogenous in mouse heart)) (enzyme),binds
2,protein phosphatase 2A (from UniProt P63330) (enzyme),binds
